From publication PMC8764035
No constants are given. Whether binding was seen depends on the method and setting. In cells and extracts the contact can be indirect.

Chains of the proteins cited; added tags and fusions are not shown.
UniProt Q16665: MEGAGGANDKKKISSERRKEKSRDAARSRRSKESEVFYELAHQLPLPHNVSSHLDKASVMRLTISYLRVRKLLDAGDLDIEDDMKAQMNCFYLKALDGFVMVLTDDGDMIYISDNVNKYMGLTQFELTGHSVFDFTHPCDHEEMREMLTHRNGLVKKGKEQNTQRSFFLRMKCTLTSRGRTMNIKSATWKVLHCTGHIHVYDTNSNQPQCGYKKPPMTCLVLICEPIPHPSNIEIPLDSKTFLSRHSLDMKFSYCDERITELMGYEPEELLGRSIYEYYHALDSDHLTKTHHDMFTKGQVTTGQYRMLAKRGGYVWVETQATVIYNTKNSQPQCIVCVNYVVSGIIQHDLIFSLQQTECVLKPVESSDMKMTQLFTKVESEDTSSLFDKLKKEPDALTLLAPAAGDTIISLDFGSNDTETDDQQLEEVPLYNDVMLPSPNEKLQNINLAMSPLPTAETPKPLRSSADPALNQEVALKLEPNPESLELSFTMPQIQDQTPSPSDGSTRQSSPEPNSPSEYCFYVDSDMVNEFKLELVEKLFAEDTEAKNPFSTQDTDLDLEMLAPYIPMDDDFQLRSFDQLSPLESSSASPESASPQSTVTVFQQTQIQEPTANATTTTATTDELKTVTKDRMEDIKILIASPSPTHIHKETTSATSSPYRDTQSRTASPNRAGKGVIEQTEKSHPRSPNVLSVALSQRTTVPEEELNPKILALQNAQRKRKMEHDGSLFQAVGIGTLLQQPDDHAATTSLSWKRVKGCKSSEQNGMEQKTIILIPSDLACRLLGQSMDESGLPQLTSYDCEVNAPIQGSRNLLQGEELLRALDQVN

Molecular target: T1, Epididymal protein 3A (EDDM3A) (human (endogenous in BGC-823 and AGS)) (UniProt Q14507)
T1 sequence: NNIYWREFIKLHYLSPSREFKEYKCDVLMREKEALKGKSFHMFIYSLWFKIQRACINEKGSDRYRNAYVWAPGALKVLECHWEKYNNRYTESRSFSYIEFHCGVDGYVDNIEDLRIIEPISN
Test: co-IP; GC cell lysate (extracts from BGC-823 and AGS cells) mixed with protein A beads containing anti-EDDM3A or anti-HIF-1α antibody, rotated at 4 °C for 3 h, washed three times with cold lysis buffer, analysed by western blot

HIF-1α (from UniProt Q16665 1-826)
binding: no binding
